In assay [1] the target is EAAT2, endogenous mouse (mouse (endogenous in hippocampus and primary astrocytes)) (UniProt P43006). Nature of the assay: co-IP; mouse hippocampal lysates, precipitated with rabbit anti-EAAT2 or rabbit anti-AMFR antibody, detected with mouse antibodies; reciprocal.
Assay [2] concerns the target EAAT2-FLAG (excitatory amino acid transporter 2, FLAG-tagged) (human) (UniProt P43004). Nature of the assay: co-IP; HEK293 cells cotransfected with EAAT2-FLAG and AMFR-Myc for 48 hours, CelLytic M lysate, anti-FLAG or anti-c-Myc agarose, 4°C 4 hours, 3 washes with PBS, Western blot; reciprocal.
In another assay the target is EAAT2 K542E (human) (UniProt P43004). Nature of the assay: native gel or EMSA; native-PAGE (loading buffer with 0.1% SDS, no BME or DTT) and immunoblot of HEK293 cells 48 hours after transfection of WT or mutant EAAT2 with AMFR or empty vector.
A further assay concerns the target EAAT2 K542G (human) (UniProt P43004). The assay is described as above.
The next assay concerns the target EAAT2 K542R (human) (UniProt P43004). The assay is described as above.
For assay [3], the target named is EAAT2, endogenous human (human (endogenous in hippocampal tissue)) (UniProt P43004). Briefly: native gel or EMSA; native-PAGE (loading buffer with 0.1% SDS, no BME or DTT) and immunoblot of lysates of human non-HS and HS hippocampal samples. (In EMSA bound probe runs differently from free probe, usually more slowly.)
For assay [4], the target named is EAAT2, endogenous mouse (mouse (endogenous in hippocampus and primary astrocytes)) (UniProt P43006). Briefly: native gel or EMSA; native-PAGE (12% precast gel, loading buffer with 0.1% SDS, no BME or DTT) and immunoblot of lysates and membrane extracts of primary cultured mouse astrocytes; AMFR overexpression or knockdown.
Assay [5] shares this target. Nature of the assay: native gel or EMSA; native-PAGE (loading buffer with 0.1% SDS, no BME or DTT) and immunoblot of mouse hippocampal lysates; KA-induced SE, AAV5-AMFR OE or KD, APAP, 17AAG.
For assay [6] the target is unchanged. Nature of the assay: SDS-PAGE without reducing agents, immunoblot; lysates of primary cultured astrocytes, 2% SDS loading buffer without BME and DTT (Figure 2A), with AAV5-AMFR or control virus; with 20 mM BME and 100 mM DTT the oligomers dissociate. On the technique in general: In western blotting, separated proteins are transferred to a membrane and probed.
In assay [7] the target is AMFR, endogenous mouse (mouse (endogenous in hippocampus)) (UniProt Q9R049). Briefly: co-IP; mouse hippocampal lysates, precipitated with rabbit anti-EAAT2 or rabbit anti-AMFR antibody, detected with mouse antibodies; reciprocal.
For a further assay, the target named is AMFR-Myc (UniProt Q9UKV5). Nature of the assay: co-IP; HEK293 cells cotransfected with EAAT2-FLAG and AMFR-Myc for 48 hours, CelLytic M lysate, anti-FLAG or anti-c-Myc agarose, 4°C 4 hours, 3 washes with PBS, Western blot; reciprocal.
Assay [8] has as its target EAAT2-FLAG (excitatory amino acid transporter 2, FLAG-tagged) (human) (UniProt P43004). Nature of the assay: native gel or EMSA; native-PAGE (loading buffer with 0.1% SDS, no BME or DTT) and immunoblot of HEK293 cells 48 hours after transfection of WT or mutant EAAT2 with AMFR or empty vector.

Chains of the proteins cited; added tags and fusions are not shown. Lines headed by an entry give the natural chain unless they say otherwise; changes in a name come on top. A line that says so, or that is headed by a name, gives the form on record, which may keep a tag or linker. Residues count along the entry.
UniProt P43006: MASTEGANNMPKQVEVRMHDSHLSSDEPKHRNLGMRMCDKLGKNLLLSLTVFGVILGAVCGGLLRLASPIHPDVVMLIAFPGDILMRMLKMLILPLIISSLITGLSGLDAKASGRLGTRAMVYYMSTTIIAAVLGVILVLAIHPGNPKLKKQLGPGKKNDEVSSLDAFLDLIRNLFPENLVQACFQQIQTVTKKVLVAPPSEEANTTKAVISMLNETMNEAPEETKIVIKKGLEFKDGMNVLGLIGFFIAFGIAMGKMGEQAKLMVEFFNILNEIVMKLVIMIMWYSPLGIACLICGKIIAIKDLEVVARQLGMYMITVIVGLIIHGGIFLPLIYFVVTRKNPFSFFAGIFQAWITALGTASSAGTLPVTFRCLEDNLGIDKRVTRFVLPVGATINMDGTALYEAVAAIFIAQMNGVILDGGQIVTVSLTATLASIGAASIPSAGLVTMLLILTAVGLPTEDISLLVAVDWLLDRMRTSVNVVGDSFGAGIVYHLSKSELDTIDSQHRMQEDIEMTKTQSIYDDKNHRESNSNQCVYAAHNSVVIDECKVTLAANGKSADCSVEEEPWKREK
EAAT2-FLAG (excitatory amino acid transporter 2, FLAG-tagged) (P43004, residues 10-574): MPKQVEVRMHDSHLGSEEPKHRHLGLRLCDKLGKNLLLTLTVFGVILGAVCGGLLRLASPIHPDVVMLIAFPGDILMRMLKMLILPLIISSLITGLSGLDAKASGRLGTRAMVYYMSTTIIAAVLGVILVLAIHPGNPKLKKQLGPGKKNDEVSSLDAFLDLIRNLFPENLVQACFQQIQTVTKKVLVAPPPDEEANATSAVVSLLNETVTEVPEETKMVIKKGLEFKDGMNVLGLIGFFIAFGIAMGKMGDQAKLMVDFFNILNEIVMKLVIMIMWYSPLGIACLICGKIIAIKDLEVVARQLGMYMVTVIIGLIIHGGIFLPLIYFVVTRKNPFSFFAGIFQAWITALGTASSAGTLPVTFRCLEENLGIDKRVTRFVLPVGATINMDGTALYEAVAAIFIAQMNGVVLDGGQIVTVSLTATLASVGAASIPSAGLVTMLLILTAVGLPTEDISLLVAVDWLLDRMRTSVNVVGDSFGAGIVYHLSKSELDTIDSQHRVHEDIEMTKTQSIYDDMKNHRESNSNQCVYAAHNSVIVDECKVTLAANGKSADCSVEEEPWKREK
EAAT2 K542E (P43004-2, form named): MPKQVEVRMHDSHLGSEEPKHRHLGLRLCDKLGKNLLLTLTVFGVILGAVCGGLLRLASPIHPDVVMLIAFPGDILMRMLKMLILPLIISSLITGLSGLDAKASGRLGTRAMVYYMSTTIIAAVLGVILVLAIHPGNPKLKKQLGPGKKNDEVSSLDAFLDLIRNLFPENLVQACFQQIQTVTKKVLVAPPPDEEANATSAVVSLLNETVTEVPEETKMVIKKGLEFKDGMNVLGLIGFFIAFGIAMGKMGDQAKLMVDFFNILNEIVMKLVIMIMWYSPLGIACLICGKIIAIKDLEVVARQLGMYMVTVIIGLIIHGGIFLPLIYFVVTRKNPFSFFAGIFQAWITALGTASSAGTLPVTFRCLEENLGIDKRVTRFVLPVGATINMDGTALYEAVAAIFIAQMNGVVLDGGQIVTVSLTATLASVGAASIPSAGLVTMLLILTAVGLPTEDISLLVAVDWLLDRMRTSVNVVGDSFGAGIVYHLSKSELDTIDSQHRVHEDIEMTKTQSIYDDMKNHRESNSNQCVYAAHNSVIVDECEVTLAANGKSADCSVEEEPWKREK
EAAT2 K542G (P43004-2, form named): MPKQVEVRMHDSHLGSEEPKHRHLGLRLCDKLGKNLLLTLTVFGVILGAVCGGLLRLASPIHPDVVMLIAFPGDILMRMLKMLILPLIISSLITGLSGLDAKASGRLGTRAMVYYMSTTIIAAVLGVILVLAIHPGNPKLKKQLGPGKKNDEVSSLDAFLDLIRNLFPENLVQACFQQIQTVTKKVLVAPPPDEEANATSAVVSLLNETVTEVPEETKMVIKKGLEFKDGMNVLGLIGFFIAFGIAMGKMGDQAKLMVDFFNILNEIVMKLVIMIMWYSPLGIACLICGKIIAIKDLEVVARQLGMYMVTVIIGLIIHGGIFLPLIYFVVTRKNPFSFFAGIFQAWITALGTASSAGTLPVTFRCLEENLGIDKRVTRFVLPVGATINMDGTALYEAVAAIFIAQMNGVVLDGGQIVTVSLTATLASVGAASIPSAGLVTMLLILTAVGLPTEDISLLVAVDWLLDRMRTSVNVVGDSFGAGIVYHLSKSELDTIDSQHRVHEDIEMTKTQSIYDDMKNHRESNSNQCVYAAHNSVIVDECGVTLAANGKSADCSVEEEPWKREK
EAAT2 K542R (P43004-2, form named): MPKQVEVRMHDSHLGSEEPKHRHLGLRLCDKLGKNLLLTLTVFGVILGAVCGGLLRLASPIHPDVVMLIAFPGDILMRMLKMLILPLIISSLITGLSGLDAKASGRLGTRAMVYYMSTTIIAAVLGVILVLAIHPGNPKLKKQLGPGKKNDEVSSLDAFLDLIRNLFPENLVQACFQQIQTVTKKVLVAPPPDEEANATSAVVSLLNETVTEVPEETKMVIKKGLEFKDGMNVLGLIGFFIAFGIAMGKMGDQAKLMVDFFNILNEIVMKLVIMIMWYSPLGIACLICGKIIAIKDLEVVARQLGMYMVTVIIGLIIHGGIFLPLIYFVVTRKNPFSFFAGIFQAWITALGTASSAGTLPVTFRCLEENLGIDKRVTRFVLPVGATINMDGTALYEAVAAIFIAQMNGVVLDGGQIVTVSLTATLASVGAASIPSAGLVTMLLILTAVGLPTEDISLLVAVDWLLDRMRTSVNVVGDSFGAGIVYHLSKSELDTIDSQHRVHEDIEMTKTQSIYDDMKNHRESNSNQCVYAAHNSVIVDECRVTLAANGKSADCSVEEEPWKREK
UniProt Q9R049: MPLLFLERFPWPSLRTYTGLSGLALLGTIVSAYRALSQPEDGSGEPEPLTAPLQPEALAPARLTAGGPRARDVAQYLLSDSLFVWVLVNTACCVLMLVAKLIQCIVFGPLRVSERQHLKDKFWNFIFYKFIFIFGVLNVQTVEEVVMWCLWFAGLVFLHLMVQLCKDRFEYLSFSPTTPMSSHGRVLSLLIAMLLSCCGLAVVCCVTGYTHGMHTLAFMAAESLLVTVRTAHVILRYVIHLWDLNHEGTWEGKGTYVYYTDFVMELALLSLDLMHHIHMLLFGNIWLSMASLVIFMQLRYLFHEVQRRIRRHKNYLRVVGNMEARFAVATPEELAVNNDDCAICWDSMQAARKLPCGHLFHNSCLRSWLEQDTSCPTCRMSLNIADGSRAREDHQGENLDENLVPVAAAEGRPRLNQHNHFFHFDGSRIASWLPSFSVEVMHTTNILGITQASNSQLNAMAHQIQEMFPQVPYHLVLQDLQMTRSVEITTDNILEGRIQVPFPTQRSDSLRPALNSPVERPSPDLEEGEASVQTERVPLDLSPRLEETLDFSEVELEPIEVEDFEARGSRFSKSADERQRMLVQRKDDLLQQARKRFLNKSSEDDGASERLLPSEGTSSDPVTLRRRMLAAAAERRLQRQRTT
UniProt Q9UKV5: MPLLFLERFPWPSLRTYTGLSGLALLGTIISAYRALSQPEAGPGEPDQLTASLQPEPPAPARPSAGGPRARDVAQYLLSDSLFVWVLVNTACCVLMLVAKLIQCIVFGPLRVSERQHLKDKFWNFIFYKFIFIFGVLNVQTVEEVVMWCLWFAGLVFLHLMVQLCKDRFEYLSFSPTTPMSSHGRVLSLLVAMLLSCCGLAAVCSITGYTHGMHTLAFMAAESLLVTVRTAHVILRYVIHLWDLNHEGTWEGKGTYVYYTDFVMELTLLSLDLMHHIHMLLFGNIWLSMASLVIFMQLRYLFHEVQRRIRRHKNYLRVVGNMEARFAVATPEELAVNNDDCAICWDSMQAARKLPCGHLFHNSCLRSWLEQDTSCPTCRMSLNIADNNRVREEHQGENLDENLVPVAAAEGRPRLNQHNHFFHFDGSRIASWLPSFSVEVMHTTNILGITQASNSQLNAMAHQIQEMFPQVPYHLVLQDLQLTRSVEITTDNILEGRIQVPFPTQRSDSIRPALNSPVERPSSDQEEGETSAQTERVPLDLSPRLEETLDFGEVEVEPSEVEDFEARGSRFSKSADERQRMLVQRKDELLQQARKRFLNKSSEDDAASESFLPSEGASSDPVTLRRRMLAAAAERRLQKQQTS

No constants are given. Whether binding was seen depends on the method and setting. For part of these data: In cells and extracts the contact can be indirect. Some binding calls cover weakened binding; strength is not graded here.

Regarding “AMFR, endogenous mouse (from UniProt Q9R049 1-643) (enzyme)”, in assay [1], the binding result was “binds”. For the substance “AMFR-Myc (from UniProt Q9UKV5 1-643) (enzyme)”, the binding entry in assay [2] was “binds”.

Consider “EAAT2 K542E (from UniProt P43004-2 1-565)”, for which the binding entry with EAAT2 K542E (human) is “binds”.

Take “EAAT2 K542G (from UniProt P43004-2 1-565)”: the binding result with EAAT2 K542G (human) is recorded as “binds”. Take “EAAT2 K542R (from UniProt P43004-2 1-565)”: the binding result with EAAT2 K542R (human) is “binds”. With “EAAT2, endogenous human (from UniProt P43004-2 1-565)”, the binding result in [3] is “binds”.

For “EAAT2, endogenous mouse (from UniProt P43006 1-572)”, the binding entry in assay [4], in [5], in assay [6] and in assay [7] was “binds” each time. Turning to “EAAT2-FLAG (excitatory amino acid transporter 2, FLAG-tagged) (from UniProt P43004-2 1-565)”, the binding result (with AMFR-Myc; in [8]) was “binds” each time.
